According to PMC7140450:
These are yes or no findings as the source states them, for the method shown. In cells and extracts the contact can be indirect. Some results given as binding are weak or reduced against the parent protein; the word gives no strength.

Chains of the proteins cited; added tags and fusions are not shown.
UniProt P09936: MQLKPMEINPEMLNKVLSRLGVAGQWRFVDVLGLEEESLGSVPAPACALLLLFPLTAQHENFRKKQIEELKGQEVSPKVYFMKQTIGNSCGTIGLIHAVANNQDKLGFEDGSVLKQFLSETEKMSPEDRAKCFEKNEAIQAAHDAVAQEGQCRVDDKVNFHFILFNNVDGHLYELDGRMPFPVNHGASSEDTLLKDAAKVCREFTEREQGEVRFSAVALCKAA
UniProt Q14247: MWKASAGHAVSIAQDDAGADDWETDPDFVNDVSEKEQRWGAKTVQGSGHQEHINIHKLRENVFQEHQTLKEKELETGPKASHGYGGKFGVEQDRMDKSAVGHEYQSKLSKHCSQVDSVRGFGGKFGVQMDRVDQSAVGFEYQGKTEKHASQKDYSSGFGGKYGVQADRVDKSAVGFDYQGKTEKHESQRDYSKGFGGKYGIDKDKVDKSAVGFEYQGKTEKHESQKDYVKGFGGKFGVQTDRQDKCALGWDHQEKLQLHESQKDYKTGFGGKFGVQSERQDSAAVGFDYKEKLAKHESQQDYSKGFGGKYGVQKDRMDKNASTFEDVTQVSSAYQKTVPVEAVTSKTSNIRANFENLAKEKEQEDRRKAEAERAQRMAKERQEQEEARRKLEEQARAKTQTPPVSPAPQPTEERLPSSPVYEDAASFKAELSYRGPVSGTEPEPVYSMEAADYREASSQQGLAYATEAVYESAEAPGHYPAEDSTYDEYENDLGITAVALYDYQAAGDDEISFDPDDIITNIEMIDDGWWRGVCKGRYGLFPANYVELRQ

What was measured:
[1] = biological target: endogenous UCHL1 of NP69 cells (human (endogenous in NP69)) (UniProt P09936); test: co-IP; endogenous proteins in NP69 cells; IP with anti-UCHL1 (IgG control) overnight at 4 °C, magnetic beads, immunoblot with anti-UCHL1 and anti-CTTN
[2] = biological target: FLAG-tagged UCHL1 (ubiquitin C-terminal hydrolase L1) (UniProt P09936); test: co-IP; SUNE1 cells transfected with FLAG-UCHL1; IP with anti-FLAG (IgG control) overnight at 4 °C, magnetic beads, immunoblot for endogenous CTTN

Row | binding [1] | binding [2] | Substance
1 | binds |  | endogenous CTTN (cortactin) of NP69 cells (from UniProt Q14247 1-550)
2 |  | binds | endogenous CTTN (cortactin) of SUNE1 cells (from UniProt Q14247 1-550)
